Experimental data taken from publication PMC10921949, “Multivalent coiled-coil interactions enable full-scale centrosome assembly and strength” (The Journal of Cell Biology, 2024).
Results are given in words; binding and its absence hold for the method and conditions named. Some results given as binding are weak or reduced against the parent protein; the word gives no strength.

T1: SPD-5, full length, phosphorylated by constitutively active PLK-1 (C. elegans), P91349
T1 chain: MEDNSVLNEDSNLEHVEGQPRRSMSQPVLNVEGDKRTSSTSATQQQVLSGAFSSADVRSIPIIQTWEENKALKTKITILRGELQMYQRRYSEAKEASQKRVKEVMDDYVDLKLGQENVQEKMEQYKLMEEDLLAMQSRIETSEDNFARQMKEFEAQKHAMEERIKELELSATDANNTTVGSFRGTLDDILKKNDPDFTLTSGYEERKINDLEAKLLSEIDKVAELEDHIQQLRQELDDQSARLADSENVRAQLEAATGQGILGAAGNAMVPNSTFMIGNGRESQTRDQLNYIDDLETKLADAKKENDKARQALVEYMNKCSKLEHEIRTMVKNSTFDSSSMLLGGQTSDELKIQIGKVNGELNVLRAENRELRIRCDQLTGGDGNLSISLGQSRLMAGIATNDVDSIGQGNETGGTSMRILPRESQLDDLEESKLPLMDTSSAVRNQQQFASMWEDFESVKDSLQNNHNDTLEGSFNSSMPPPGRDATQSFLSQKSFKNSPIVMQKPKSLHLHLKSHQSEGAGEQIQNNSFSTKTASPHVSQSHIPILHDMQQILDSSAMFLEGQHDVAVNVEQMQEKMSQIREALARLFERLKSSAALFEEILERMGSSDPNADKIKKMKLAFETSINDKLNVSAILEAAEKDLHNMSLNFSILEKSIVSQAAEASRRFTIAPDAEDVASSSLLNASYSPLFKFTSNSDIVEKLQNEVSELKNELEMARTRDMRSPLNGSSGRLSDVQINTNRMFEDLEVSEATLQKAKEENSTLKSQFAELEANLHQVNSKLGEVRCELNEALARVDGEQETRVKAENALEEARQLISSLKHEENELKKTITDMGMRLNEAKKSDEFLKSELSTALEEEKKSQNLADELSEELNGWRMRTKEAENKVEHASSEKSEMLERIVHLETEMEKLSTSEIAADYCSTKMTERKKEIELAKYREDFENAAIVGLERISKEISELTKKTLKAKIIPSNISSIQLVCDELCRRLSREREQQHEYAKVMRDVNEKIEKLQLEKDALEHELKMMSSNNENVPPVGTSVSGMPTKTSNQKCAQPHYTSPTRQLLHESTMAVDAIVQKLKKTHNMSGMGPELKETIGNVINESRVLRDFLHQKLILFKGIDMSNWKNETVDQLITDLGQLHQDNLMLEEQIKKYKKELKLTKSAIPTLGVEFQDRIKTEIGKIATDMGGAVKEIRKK

B1: SPD-5, full length, phosphorylated by constitutively active PLK-1, P91349 1-1198 (protein)
chain: MEDNSVLNEDSNLEHVEGQPRRSMSQPVLNVEGDKRTSSTSATQQQVLSGAFSSADVRSIPIIQTWEENKALKTKITILRGELQMYQRRYSEAKEASQKRVKEVMDDYVDLKLGQENVQEKMEQYKLMEEDLLAMQSRIETSEDNFARQMKEFEAQKHAMEERIKELELSATDANNTTVGSFRGTLDDILKKNDPDFTLTSGYEERKINDLEAKLLSEIDKVAELEDHIQQLRQELDDQSARLADSENVRAQLEAATGQGILGAAGNAMVPNSTFMIGNGRESQTRDQLNYIDDLETKLADAKKENDKARQALVEYMNKCSKLEHEIRTMVKNSTFDSSSMLLGGQTSDELKIQIGKVNGELNVLRAENRELRIRCDQLTGGDGNLSISLGQSRLMAGIATNDVDSIGQGNETGGTSMRILPRESQLDDLEESKLPLMDTSSAVRNQQQFASMWEDFESVKDSLQNNHNDTLEGSFNSSMPPPGRDATQSFLSQKSFKNSPIVMQKPKSLHLHLKSHQSEGAGEQIQNNSFSTKTASPHVSQSHIPILHDMQQILDSSAMFLEGQHDVAVNVEQMQEKMSQIREALARLFERLKSSAALFEEILERMGSSDPNADKIKKMKLAFETSINDKLNVSAILEAAEKDLHNMSLNFSILEKSIVSQAAEASRRFTIAPDAEDVASSSLLNASYSPLFKFTSNSDIVEKLQNEVSELKNELEMARTRDMRSPLNGSSGRLSDVQINTNRMFEDLEVSEATLQKAKEENSTLKSQFAELEANLHQVNSKLGEVRCELNEALARVDGEQETRVKAENALEEARQLISSLKHEENELKKTITDMGMRLNEAKKSDEFLKSELSTALEEEKKSQNLADELSEELNGWRMRTKEAENKVEHASSEKSEMLERIVHLETEMEKLSTSEIAADYCSTKMTERKKEIELAKYREDFENAAIVGLERISKEISELTKKTLKAKIIPSNISSIQLVCDELCRRLSREREQQHEYAKVMRDVNEKIEKLQLEKDALEHELKMMSSNNENVPPVGTSVSGMPTKTSNQKCAQPHYTSPTRQLLHESTMAVDAIVQKLKKTHNMSGMGPELKETIGNVINESRVLRDFLHQKLILFKGIDMSNWKNETVDQLITDLGQLHQDNLMLEEQIKKYKKELKLTKSAIPTLGVEFQDRIKTEIGKIATDMGGAVKEIRKK
modifications: here or on the partner: phosphorylated by PLK-1(CA); all sites are listed in Data S1; phosphorylated by PLK-1(CA); all sites are listed in Data S1
B2: SPD-5, full length, dephosphorylated (incubated with kinase-dead PLK-1) (protein, UniProt P91349 1-1198)
chain: MEDNSVLNEDSNLEHVEGQPRRSMSQPVLNVEGDKRTSSTSATQQQVLSGAFSSADVRSIPIIQTWEENKALKTKITILRGELQMYQRRYSEAKEASQKRVKEVMDDYVDLKLGQENVQEKMEQYKLMEEDLLAMQSRIETSEDNFARQMKEFEAQKHAMEERIKELELSATDANNTTVGSFRGTLDDILKKNDPDFTLTSGYEERKINDLEAKLLSEIDKVAELEDHIQQLRQELDDQSARLADSENVRAQLEAATGQGILGAAGNAMVPNSTFMIGNGRESQTRDQLNYIDDLETKLADAKKENDKARQALVEYMNKCSKLEHEIRTMVKNSTFDSSSMLLGGQTSDELKIQIGKVNGELNVLRAENRELRIRCDQLTGGDGNLSISLGQSRLMAGIATNDVDSIGQGNETGGTSMRILPRESQLDDLEESKLPLMDTSSAVRNQQQFASMWEDFESVKDSLQNNHNDTLEGSFNSSMPPPGRDATQSFLSQKSFKNSPIVMQKPKSLHLHLKSHQSEGAGEQIQNNSFSTKTASPHVSQSHIPILHDMQQILDSSAMFLEGQHDVAVNVEQMQEKMSQIREALARLFERLKSSAALFEEILERMGSSDPNADKIKKMKLAFETSINDKLNVSAILEAAEKDLHNMSLNFSILEKSIVSQAAEASRRFTIAPDAEDVASSSLLNASYSPLFKFTSNSDIVEKLQNEVSELKNELEMARTRDMRSPLNGSSGRLSDVQINTNRMFEDLEVSEATLQKAKEENSTLKSQFAELEANLHQVNSKLGEVRCELNEALARVDGEQETRVKAENALEEARQLISSLKHEENELKKTITDMGMRLNEAKKSDEFLKSELSTALEEEKKSQNLADELSEELNGWRMRTKEAENKVEHASSEKSEMLERIVHLETEMEKLSTSEIAADYCSTKMTERKKEIELAKYREDFENAAIVGLERISKEISELTKKTLKAKIIPSNISSIQLVCDELCRRLSREREQQHEYAKVMRDVNEKIEKLQLEKDALEHELKMMSSNNENVPPVGTSVSGMPTKTSNQKCAQPHYTSPTRQLLHESTMAVDAIVQKLKKTHNMSGMGPELKETIGNVINESRVLRDFLHQKLILFKGIDMSNWKNETVDQLITDLGQLHQDNLMLEEQIKKYKKELKLTKSAIPTLGVEFQDRIKTEIGKIATDMGGAVKEIRKK

How the values were obtained:
[1] = target: T1, SPD-5, full length, phosphorylated by …; test: cross-linking; XL-MS with the zero-length crosslinker DMTMM (8 mM, 45 min, room temperature) on 1 uM dephosphorylated SPD-5 + 1 uM PLK-1 (KD or CA), 0.2 mM ATP, 10 mM MgCl2, 150 mM KCl, 25 mM HEPES pH 7.4, 0.5 mM DTT, 2 h; SDS-PAGE multimer bands excised and analysed by MS; crosslinks also found in monomer bands subtracted; n = 6 replicates; both purified; conditions: remark: other sources report otherwise
[2] = target: SPD-5, full length, dephosphorylated (incubated with kinase-dead PLK-1) (C. elegans) (UniProt P91349); test: as above

| Binder | binding [1] | binding [2] |
| --- | --- | --- |
| B1 | binds |  |
| B2 |  | binds weakly |
